## Cell number after 72 h of treatment

Values as published with doi:10.1371/journal.pone.0140310, rounded.

Drugs:
TCS401 (8330 nM): O=C(O)C(=O)Nc1sc2c(c1C(=O)O)CCNC2
BI-78D3 (1000 nM): O=c1[nH]nc(Sc2ncc([N+](=O)[O-])s2)n1-c1ccc2c(c1)OCCO2
VX-702 (2000 nM): NC(=O)c1ccc(N(C(N)=O)c2c(F)cccc2F)nc1-c1ccc(F)cc1F
stibogluconate (10000 nM): O=C(O)[C@@H]1[O][Sb](=[O])([O][Sb]2(=[O])[O][C@H]([C@H](O)CO)[C@H](O)[C@H](C(=O)O)[O]2)[O][C@H]([C@H](O)CO)[C@@H]1O (some centres not stated)
sunitinib (2000 nM): CCN(CC)CCNC(=O)c1c(C)[nH]c(/C=C2\C(=O)Nc3ccc(F)cc32)c1C
cediranib (2000 nM): COc1cc2c(Oc3ccc4[nH]c(C)cc4c3F)ncnc2cc1OCCCN1CCCC1
nutlin-3 (500 nM): COc1ccc(C2=N[C@@H](c3ccc(Cl)cc3)[C@@H](c3ccc(Cl)cc3)N2C(=O)N2CCNC(=O)C2)c(OC(C)C)c1
fingolimod (10000 nM): CCCCCCCCc1ccc(CCC(N)(CO)CO)cc1
FH535 (5000 nM): Cc1cc([N+](=O)[O-])ccc1NS(=O)(=O)c1cc(Cl)ccc1Cl
OSI-906 (2000 nM): C[C@]1(O)C[C@@H](c2nc(-c3ccc4ccc(-c5ccccc5)nc4c3)c3c(N)nccn32)C1
palbociclib (200 nM): CC(=O)c1c(C)c2cnc(Nc3ccc(N4CCNCC4)cn3)nc2n(C2CCCC2)c1=O
PF-04217903 (5000 nM): OCCn1cc(-c2cnc3nnn(Cc4ccc5ncccc5c4)c3n2)cn1
A-769662 (10000 nM): N#Cc1c(O)c2c(-c3ccc(-c4ccccc4O)cc3)csc2[nH]c1=O
GSK0660 (5000 nM): COC(=O)c1sccc1S(=O)(=O)Nc1ccc(Nc2ccccc2)cc1OC
JZL184 (5000 nM): O=C(Oc1ccc([N+](=O)[O-])cc1)N1CCC(C(O)(c2ccc3c(c2)OCO3)c2ccc3c(c2)OCO3)CC1
tamatinib (2000 nM): COc1cc(Nc2ncc(F)c(Nc3ccc4c(n3)NC(=O)C(C)(C)O4)n2)cc(OC)c1OC
BI-D1870 (1000 nM): CC(C)CCN1c2nc(Nc3cc(F)c(O)c(F)c3)ncc2N(C)C(=O)C1C (configuration not stated)
NVP-BEZ235 (20 nM): Cn1c(=O)n(-c2ccc(C(C)(C)C#N)cc2)c2c3cc(-c4cnc5ccccc5c4)ccc3ncc21

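The test systems are human melanoma cell lines, treated with a pair of drugs for 72 h and then stained and imaged. Values are the number of DAPI-stained nuclei as a percentage of the DMSO control: 100 is no effect, lower means fewer cells. Every drug was used at one fixed concentration, the higher of two screened. The file gives one value for each pair and line, without errors, so small differences may be noise.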 This is part of the screen, not chosen by result.

Drugs	C32	COLO 829	COLO 792	COLO 800
palbociclib + sunitinib	80.0	83.7	35.8	44.5
PF-04217903 + OSI-906	106	97.4	87.6	46.7
FH535 + OSI-906	105	70.8	76.3	67.7
VX-702 + nutlin-3	101	67.8	98.4	89.8
PF-04217903 + TCS401	91.4	129	95.8	77.9
palbociclib + OSI-906	85.5	59.2	61.0	54.2
tamatinib + FH535	90.6	54.4	39.1	53.3
sunitinib + stibogluconate	69.9	126	42.7	87.9
BI-78D3 + GSK0660	90.1	100	97.2	73.6
fingolimod + tamatinib	3.2	43.1	2.6	15.7
BI-D1870 + nutlin-3	77.9	80.3	89.1	99.0
A-769662 + OSI-906	112	85.5	139	87.4
OSI-906 + stibogluconate	115	95.6	92.4	54.4
VX-702 + A-769662	96.5	106	106	122
JZL184 + NVP-BEZ235	86.0	85.7	73.2	86.5
BI-D1870 + NVP-BEZ235	88.2	87.6	53.3	57.1
FH535 + nutlin-3	81.9	69.2	78.4	58.0
JZL184 + stibogluconate	86.7	125	104	95.1
FH535 + cediranib	93.5	94.7	71.8	48.4
A-769662 + BI-78D3	96.7	139	116	163

Some entries from above, unchanged:

Drugs	C32	COLO 829	COLO 792	COLO 800
A-769662 + BI-78D3	96.7	139	116	163
FH535 + nutlin-3	81.9	69.2	78.4	58.0